Primary screen of a compound library

Chains of the proteins cited; added tags and fusions are not shown.
UniProt E9BF75, entry or part of it: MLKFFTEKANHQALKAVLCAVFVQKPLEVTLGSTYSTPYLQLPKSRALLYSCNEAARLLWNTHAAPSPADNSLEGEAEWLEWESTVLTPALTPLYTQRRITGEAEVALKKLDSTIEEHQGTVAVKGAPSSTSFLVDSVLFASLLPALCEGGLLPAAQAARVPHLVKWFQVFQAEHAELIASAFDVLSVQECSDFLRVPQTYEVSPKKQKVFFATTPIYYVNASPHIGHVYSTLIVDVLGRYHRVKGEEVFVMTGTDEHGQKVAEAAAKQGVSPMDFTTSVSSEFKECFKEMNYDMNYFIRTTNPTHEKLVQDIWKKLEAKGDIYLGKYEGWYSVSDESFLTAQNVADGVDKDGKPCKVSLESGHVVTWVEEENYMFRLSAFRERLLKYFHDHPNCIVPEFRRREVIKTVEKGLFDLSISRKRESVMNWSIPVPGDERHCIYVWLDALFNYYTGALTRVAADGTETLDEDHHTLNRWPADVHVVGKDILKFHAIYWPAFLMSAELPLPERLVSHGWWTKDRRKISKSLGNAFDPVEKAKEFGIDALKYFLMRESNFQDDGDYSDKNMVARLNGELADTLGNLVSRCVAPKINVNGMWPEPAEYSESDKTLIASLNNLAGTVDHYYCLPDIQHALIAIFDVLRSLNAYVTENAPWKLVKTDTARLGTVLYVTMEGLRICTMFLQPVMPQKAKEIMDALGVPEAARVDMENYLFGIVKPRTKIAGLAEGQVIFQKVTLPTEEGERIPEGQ

From ChEMBL document CHEMBL3988442, “University of Dundee, Small-Polar-MMV Screening Library” (2021).

LdMetRS: 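Primary screen of methionyl-tRNA synthetase; the read-out is not stated. Target: Methionyl-tRNA synthetase (putative), Leishmania donovani (UniProt E9BF75). The test concentration is not given. The values are filed as inhibition. Size under these conditions: about 68,000 compounds, about 24 of them at 50% or above in at least one test.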
Mtb heat-shock: 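Assay on Mycobacterium tuberculosis, filed only as a heat shock assay from Cornell; the read-out is not stated. The concentration is filed as 10 mM, unlikely as a test dose, so the dose is not known. Direction is inferred from retests: higher values go with stronger inhibition. Of about 69,000 compounds tested this way, about 930 (1.4%) reached 50% or more in at least one test.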

Results are percentages, as filed. The controls that fix the scale are not given in the record; negative values are as filed. The compounds are a random part of those screened.

{"compound": "Cc1c(C)n2c(SCC(=O)N3CCCCC3)nnc2[nH]c1=O", "LdMetRS": 4.556, "Mtb heat-shock": 0.4837}
{"compound": "CO[C@@H]1CO[C@@]2(CCN(C(=O)COc3ccccc3C)C2)C1", "LdMetRS": 12.77, "Mtb heat-shock": 10.59}
{"compound": "O=C1NCc2ccccc2CC12CCCN(CCCc1ccccc1)C2", "stereo": "stereo not drawn", "LdMetRS": 24.57, "Mtb heat-shock": -10.94}
{"compound": "Cc1cccc(C)c1-n1nnnc1C1(NCc2ccco2)CCCC1", "LdMetRS": 17.12, "Mtb heat-shock": 12.42}
{"compound": "[H][C@]12CCN(C(=O)Cc3cccc(OC)c3)CC[C@@]1([H])S(=O)(=O)N(CC)C2", "Mtb heat-shock": 18.39}
{"compound": "c1ccc(Cn2ccnc2CNC2CCCOc3ccccc32)cc1", "stereo": "stereo not drawn", "LdMetRS": 5.797, "Mtb heat-shock": 104.4}
{"compound": "COc1ccc2c(C)nc(N3C[C@@H](C)O[C@@H](C)C3)nc2c1", "LdMetRS": 13.66, "Mtb heat-shock": 0.8064}
{"compound": "Cc1cc(CCC2CN(CC3(O)CCCCC3)CCO2)ncn1", "stereo": "stereo not drawn", "LdMetRS": 9.494, "Mtb heat-shock": -44.25}
{"compound": "[H][C@]12CC[C@]([H])(CN(Cc3ccccc3)C1)N(C(=O)C1CCS(=O)(=O)CC1)C2", "Mtb heat-shock": -16.31}
{"compound": "CC(C)CN(C)c1ccc(C(=O)N2CCCC2c2cnn(C)c2)cn1", "stereo": "stereo not drawn", "LdMetRS": 7.874, "Mtb heat-shock": -18.13}
{"compound": "CN(C)C(=O)NC[C@H]1OC[C@@H]2CCN(Cc3ccoc3)C[C@@H]21", "LdMetRS": -2.092}
{"compound": "CCc1nc(C2CCCN(C(=O)c3ccc4[nH]cnc4c3)C2)no1", "stereo": "stereo not drawn", "LdMetRS": 9.945, "Mtb heat-shock": -14.17}
{"compound": "CCCN1CCCC2(CCN(Cc3cncn3C3CCCC3)C2)C1=O", "stereo": "stereo not drawn", "LdMetRS": 13.07, "Mtb heat-shock": -6.674}
{"compound": "c1cnc(N2CC[C@@H](N3CCOCC3)[C@@H]2Cc2ccncc2)nc1", "LdMetRS": 10.47}
{"compound": "[H][C@]12CC=C(CN3CCCn4nc(C(=O)NCCO)cc4C3)[C@]([H])(C1)C2(C)C", "Mtb heat-shock": -12.43}
{"compound": "CN(C)S(=O)(=O)N1CC[C@]2(C[C@H](OCc3ccncc3)CO2)C1.O=C(O)C(F)(F)F", "Mtb heat-shock": -19.84}
{"compound": "[H][C@@]12CS(=O)(=O)C[C@]1([H])NCCN2c1ccnc(N(C)CCN2CCCC2)n1", "Mtb heat-shock": -27.99}
{"compound": "c1cc(COC[C@]23COC[C@H]2CN(Cc2ccsc2)C3)ccn1", "LdMetRS": 4.667}
{"compound": "CC(C)[C@H](NC(=O)NC1CCS(=O)(=O)C1)C(=O)NCc1ccc(Cl)cc1", "stereo": "stereo partly drawn", "LdMetRS": 15.45, "Mtb heat-shock": -20.05}
{"compound": "CC1CS(=O)(=O)CCN1CCCc1ccc(Cl)cc1", "stereo": "stereo not drawn", "LdMetRS": 15.09, "Mtb heat-shock": -6.861}
{"compound": "CC[C@@H]1N(Cc2ccncc2)CCC[C@]12CCC(=O)N2CCOC", "LdMetRS": 6.091}
{"compound": "O=C(NCC1CC1)C1CCC2(CN(C(=O)c3ccno3)C2)O1", "stereo": "stereo not drawn", "LdMetRS": 10.87, "Mtb heat-shock": -4.817}
{"compound": "O=C1CC(c2ccccc2F)c2c(n3ccsc3nc2=O)N1", "stereo": "stereo not drawn", "LdMetRS": 12.86, "Mtb heat-shock": 28.55}
{"compound": "N[C@@H](Cc1ccccc1)c1nnc(S(=O)(=O)Cc2cccc(Cl)c2)o1", "LdMetRS": 5.691}
{"compound": "[H][C@@]12CCN(C(=O)c3cccs3)C[C@]1([H])OCCNC2=O", "Mtb heat-shock": -11.64}

For reference, 3 entries once more:

Result for CO[C@@H]1CO[C@@]2(CCN(C(=O)COc3ccccc3C)C2)C1 was LdMetRS: 12.77%; Mtb heat-shock: 10.59%.
Result for c1cnc(N2CC[C@@H](N3CCOCC3)[C@@H]2Cc2ccncc2)nc1 was LdMetRS: 10.47%.
Result for O=C1NCc2ccccc2CC12CCCN(CCCc1ccccc1)C2 (stereo not drawn) was LdMetRS: 24.57%; Mtb heat-shock: -10.94%.